This is an account of results in paper PMC10223906.

Assay [1] addresses Wild-type p53 (human (endogenous in HCT116)) (UniProt P04637). Put plainly: proximity ligation; PLA of p53 and ATF2 in HCT116 control cells (no 5-FU); Suppl. Figure S5b.
Assay [2] has the same target. As to the kind of experiment: proximity ligation; PLA of p53 and ATF2 in HCT116 cells upon 5-FU exposure; Suppl. Figure S5b.

These are yes or no findings as the source states them, for the method shown. In cells and extracts the contact can be indirect. Some entries that bind do so weakly or less than the wild type.

B1: ATF2 (protein, UniProt P15336 1-505)
chain: MKFKLHVNSARQYKDLWNMSDDKPFLCTAPGCGQRFTNEDHLAVHKHKHEMTLKFGPARNDSVIVADQTPTPTRFLKNCEEVGLFNELASPFENEFKKASEDDIKKMPLDLSPLATPIIRSKIEEPSVVETTHQDSPLPHPESTTSDEKEVPLAQTAQPTSAIVRPASLQVPNVLLTSSDSSVIIQQAVPSPTSSTVITQAPSSNRPIVPVPGPFPLLLHLPNGQTMPVAIPASITSSNVHVPAAVPLVRPVTMVPSVPGIPGPSSPQPVQSEAKMRLKAALTQQHPPVTNGDTVKGHGSGLVRTQSEESRPQSLQQPATSTTETPASPAHTTPQTQSTSGRRRRAANEDPDEKRRKFLERNRAAASRCRQKRKVWVQSLEKKAEDLSSLNGQLQSEVTLLRNEVAQLKQLLLAHKDCPVTAMQKKSGYHTADKDDSSEDISVPSSPHTEAIQHSSVSTSNGVSSTSKAEAVATSVLTQMADQSTEPALSQIVMAPSSQSQPSGS
As for B1, the values for the binding entry in assay [1] and in assay [2] were “no binding (condition: control cells without 5-FU)” and “binds”, respectively.
